Source: patent publication US20210221903A1 (HRAIN BIOTECHNOLOGY, published 2021)

Target: T1, B-cell maturation antigen (BCMA) on U266 cells (UniProt Q02223 1-184, limits assumed)
T1 sequence (looked up): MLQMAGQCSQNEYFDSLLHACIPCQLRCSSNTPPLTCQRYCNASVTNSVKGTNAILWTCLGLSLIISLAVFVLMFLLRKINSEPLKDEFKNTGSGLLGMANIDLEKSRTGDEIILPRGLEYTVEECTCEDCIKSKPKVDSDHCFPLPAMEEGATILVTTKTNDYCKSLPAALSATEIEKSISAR
Assay: cell-based or functional assay

B1: BCMA-targeting chimeric antigen receptor (anti-BCMA scFv-CD8 hinge-CD8TM-41BB-CD3ζ), expressed on BCMA-tEGFR CAR T-cells (other)
chain: DIVLTQSPASLAMSLGKRATISCRASESVSVIGAHLIHWYQQKPGQPPKLLIYLASNLETGVPARFSGSGSGTDFTLTIDPVEEDDVAIYSCLQSRIFPRTFGGGTKLEIKGGGGSGGGGSGGGGSQIQLVQSGPELKKPGETVKISCKASGYTFTDYSINWVKRAPGKGLKWMGWINTETREPAYAYDFRGRFAFSLETSASTAYLQINNLKYEDTATYFCALDYSYAMDYWGQGTSVTVSSTTTPAPRPPTPAPTIASQPLSLRPEACRPAAGGAVHTRGLDFACDIYIWAPLAGTCGVLLLSLVITLYCRFSVVKRGRKKLLYIFKQPFMRPVQTTQEEDGCSCRFPEEEEGGCELRVKFSRSADAPAYQQGQNQLYNELNLGRREEYDVLDKRRGRDPEMGGKPRRKNPQEGLYNELQKDKMAEAYSEIGMKGERRRGKGHDGLYQGLSTATKDTYDALHMQALPPR
  killing of U266 cells at effector:target ratio of 10:1: 70%
